Some results were stated once for a whole list of compounds, not compound by compound. Some ranges recur; such a range may be that of the whole group of compounds.
Target: T1, CCX CKR (Homo sapiens, UniProt Q9NPB9)
T1 construct: Full length CCX CKR expression constructs were made in pIRESpuro expression vector; expressed in transfected cells
T1 sequence (Q9NPB9 1-350): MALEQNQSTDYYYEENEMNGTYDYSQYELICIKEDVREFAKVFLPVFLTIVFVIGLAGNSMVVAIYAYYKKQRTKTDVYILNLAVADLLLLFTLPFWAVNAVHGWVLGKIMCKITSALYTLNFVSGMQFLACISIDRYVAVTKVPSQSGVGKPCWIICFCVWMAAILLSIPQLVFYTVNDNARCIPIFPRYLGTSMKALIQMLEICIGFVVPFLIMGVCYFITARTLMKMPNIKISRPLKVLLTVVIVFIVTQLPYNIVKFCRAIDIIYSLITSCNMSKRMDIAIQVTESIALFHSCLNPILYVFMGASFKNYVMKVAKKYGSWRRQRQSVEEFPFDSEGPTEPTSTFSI
Test: Radioligand binding competition with Scatchard transformation (binding constants)
Details: competition against radiolabeled ligand on CCX CKR stable transfectants, human ELC, SLC, TECK, read-out: Kd (apparent)
Text: In one embodiment, binding is detected as described by Dairaghi et al., 1997, J. Biol. Chem. 272:28206-209 (incorporated by reference in its entirety for all purposes) substituting CCX CKR transfectants for the CCR3 transfectants). In one embodiment, binding is detected using the filter based technique described by Dairaghi et al., 1999, J. Biol. Chem. 274:2156 (incorporated by reference in its entirety for all purposes), e.g., as shown in FIG. 4. Briefly, this technology employs expanded, efficiency-maximized radioligand binding utilizing filtration protocols. […] Filters are washed twice (25 mM HEPES, 500 mM NaCl, 1 mM CaCl25 mM MgCl2, adjusted to pH 7.1) and scintillant (e.g., MicroScint 20; 50 μl) is added to dried filters and counted (e.g., using a Packard Topcount scintillation counter). The competition dose-response curves is analyzed by standard methods to determine IC50 values (e.g., using GraphPad Prism software (San Diego, Calif.)). […]
The binding interactions identified in the primary screen were examined quantitatively by extensive radioligand binding competition to CCX CKR stable transfectants and Scatchard transformation of the displacement data (FIG. 4B). […]

Substance	Kd [nM]
ELC: EBII ligand chemokine, recombinant chemokine from R&D Systems	5 to 15
TECK: thymus expressed chemokine, recombinant	5 to 15

Source: patent US6998239B1, “Method for identifying a modulator of the binding of CCX CKR polypeptide to a chemokine” (ChemoCentryx, Inc., priority 1999, dated 2006)
